{"sequences": {"note": "Protein sequences, listed by entry. Tags and fused reporters are not part of them.", "UniProt P27695, whole entry, looked up": "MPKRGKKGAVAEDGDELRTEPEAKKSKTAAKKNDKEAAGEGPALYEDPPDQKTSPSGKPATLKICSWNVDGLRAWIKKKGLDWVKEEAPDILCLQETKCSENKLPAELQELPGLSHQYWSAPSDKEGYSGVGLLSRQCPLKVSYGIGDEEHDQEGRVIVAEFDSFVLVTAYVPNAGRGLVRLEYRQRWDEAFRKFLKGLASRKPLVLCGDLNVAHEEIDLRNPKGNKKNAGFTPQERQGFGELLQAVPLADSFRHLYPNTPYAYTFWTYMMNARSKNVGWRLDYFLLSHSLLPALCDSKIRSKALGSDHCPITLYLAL"}, "source": "PubChem BioAssay AID2517", "about": "(National Center for Advancing Translational Sciences (NCATS), 2010)", "note": "The campaign covered roughly 350,000 compounds. About 1,200 (0.34%) were called active. The inconclusive results got no clear call from the source; some entries with a clear call stand among them for comparison. The call rests on the fitted dose curve; in most records, active means well fitted inhibition curve with a large enough effect; inconclusive means small, poorly fitted or top-dose-only effect; inactive means no such curve, though single readings can be large or run the other way. Where the call is inconclusive, the potency comes from a doubtful curve fit. Potency means the concentration at half of the fitted maximal effect.", "data": [{"target": "DNA repair nuclease/redox regulator APEX1 (Homo sapiens) (UniProt P27695)", "test": "qHTS Assay for Inhibitors of the Human Apurinic/apyrimidinic Endonuclease 1 (APE1); further: nearly all actives have a fitted effect of over 55% in size;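 on activity change, negative = inhibition: plate controls were vehicle for no effect and reference inhibitor for full effect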", "details": "recombinant APE1, TAMRA/BHQ-2 abasic DNA cleavage fluorescence; activity change, negative = inhibition: at 65.8 µM (top of the series)", "in_short": "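APE1 at 0.75 nM final was preincubated with compound 15 min at room temperature, then 50 nM double-stranded THF abasic-site substrate (5'-TAMRA/3'-BHQ-2) was added. Fluorescence (ex 525/em 598 nm) was read kinetically; third-minus-first read gave activity.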", "values": [{"smiles": "COc1cccc(N2CC(C(=O)Nc3nnc(SCC(=O)NC4CCCC4)s3)CC2=O)c1", "note": "(configuration not stated)", "Potency": "inactive"}, {"smiles": "O=C(CC1C[C@H](C(=O)N2CCCCC2)[C@@]2(CCc3ccccc3)c3[nH]c4ccccc4c3CCN2C1=O)NCc1cccc(C(F)(F)F)c1", "note": "(some centres not stated)", "Potency": "inactive"}, {"smiles": "CCC(=O)c1c(NC(C)C)cc(C)oc1=O", "Potency": "inconclusive: 7.08 µM [inhibitor, single point]"}, {"smiles": "C=C(C)C(=O)NC1=NN(c2ccccc2)C(=O)C1", "Potency": "inconclusive: 10 µM [inhibitor, partial curve]"}, {"smiles": "CCOC(=O)c1cc(-c2ccc(OC)cc2)nc2c1c(C)nn2CCC(N)=S", "Potency": "inconclusive: 0.794 µM [inhibitor, full curve]"}, {"smiles": "O=[N+]([O-])c1ccc(C2=Nn3cnnc3SC2)cc1", "Potency": "inconclusive: 0.112 µM [inhibitor, full curve, poor fit]"}, {"smiles": "COC(=O)c1ccc2c(c1)NC(=O)C(N(CC(C)C)CC(C)C)S2", "note": "(configuration not stated)", "Potency": "inconclusive: 44.7 µM [inhibitor, single point]"}, {"smiles": "CCN1C(=O)C(CC(=O)Nc2ccc(OC)cc2)N(CCc2ccc(F)cc2)C1=S", "note": "(configuration not stated)", "Potency": "inconclusive: 31.6 µM [inhibitor, single point]"}, {"smiles": "CCCCOc1ccc(Cc2n[nH]c(=S)n2N)cc1", "Potency": "inconclusive: 28.2 µM [inhibitor, single point]"}, {"smiles": "O=C(O)CSc1nnc(COc2cccc3ccccc23)n1Cc1ccccc1", "Potency": "inconclusive: 11.2 µM [inhibitor, partial curve, poor fit]"}, {"smiles": "C/C(CCN1CCCCc2nc(C)c(C)cc21)=N\\OC[C@@H](O)COCc1ccco1", "activity change, negative = inhibition": "inactive: 27.5% [at 12.4 µM]"}, {"smiles": "O=C(O)c1cc(O)c2c(c1)[C@H]([C@H]1c3cc(C(=O)O)cc(O)c3C(=O)c3c(O[C@@H]4O[C@H](CO)[C@@H](O)[C@H](O)[C@H]4O)cccc31)c1cccc(OC3O[C@H](CO)[C@@H](O)[C@H](O)[C@H]3O)c1C2=O", "note": "(some centres not stated)", "Potency": "active: 0.067 µM"}, {"smiles": "Cc1cc2c(NC(=O)Nc3ccccc3)cccc2nn1", "Potency": "inconclusive: 39.8 µM [inhibitor, single point]"}, {"smiles": "CN(CC(=O)Nc1ccc(F)cc1)c1ccc(S(=O)(=O)N2CCCCC2)cc1[N+](=O)[O-]", "Potency": "inconclusive: 17.8 µM [inhibitor, partial curve]"}, {"smiles": "CN[C@@H]1[C@@H](O)[C@@H](O[C@@H]2[C@@H](O)[C@H](OC3OC(CN)=CCC3N)[C@@H](N)C[C@H]2N)OC[C@]1(C)O", "note": "(some centres not stated)", "Potency": "inactive"}, {"smiles": "O=S(=O)(N1CCOCC1)n1c(Cc2ccccc2)nc2ccccc21", "Potency": "inconclusive: 39.8 µM [inhibitor, single point]"}, {"smiles": "CC(C)(C)c1ccc(C(=O)N/N=C/c2cccc(Cl)c2)cc1", "Potency": "inconclusive: 3.16 µM [inhibitor, single point]"}, {"smiles": "COc1cccc(C(=O)Oc2cc(C)[nH]c(=O)c2[N+](=O)[O-])c1OC", "Potency": "inconclusive: 2.82 µM [inhibitor, partial curve]"}, {"smiles": "COc1ccc(NC(=O)Cn2ncc(Cl)c(Cl)c2=O)cc1S(=O)(=O)N1CCOCC1", "Potency": "inconclusive: 31.6 µM [inhibitor, partial curve]"}, {"smiles": "Oc1c(C=Nc2cccc3nsnc23)ccc2ccccc12", "Potency": "inconclusive: 10 µM [inhibitor, partial curve]"}, {"smiles": "NC(=O)c1cc[n+](CC2=C(C(=O)O)N3C(=O)[C@@H](NC(=O)[C@@H](c4ccccc4)S(=O)(=O)[O-])[C@H]3SC2)cc1", "Potency": "inconclusive: 28.2 µM [inhibitor, single point]"}, {"smiles": "COc1ccc(C(=O)Nc2ccc(C3(C#N)CCCC3)cc2)cc1", "Potency": "inconclusive: 28.2 µM [inhibitor, partial curve]"}, {"smiles": "O=C(c1ccc(CNS(=O)(=O)c2ccc(Br)cc2)cc1)N1CCCC1", "Potency": "inconclusive: 39.8 µM [inhibitor, single point]"}, {"smiles": "S=C(NCc1cccnc1)Nc1ccc(Oc2ccc(Cl)cc2)cc1", "Potency": "inactive"}, {"smiles": "CN(C(=S)Nc1cccnc1)c1ccc(O)cc1", "Potency": "inconclusive: 6.31 µM [inhibitor, single point]"}, {"smiles": "O=S(=O)(NC1CCCCC1Sc1ncccn1)c1ccc(Cl)cc1", "note": "(configuration not stated)", "Potency": "inconclusive: 3.98 µM [inhibitor, single point]"}, {"smiles": "CCN1C(=O)C(CC(=O)Nc2ccc(OC)cc2)N(CCc2ccc(OC)cc2)C1=S", "note": "(configuration not stated)", "Potency": "inconclusive: 39.8 µM [inhibitor, single point]"}, {"smiles": "O=C(O)CC1Sc2nc3ccccc3n2C1=O", "note": "(configuration not stated)", "Potency": "inconclusive: 44.7 µM [inhibitor, single point]"}, {"smiles": "Cn1c(O)c(N=NC(=O)c2cc(-c3cccs3)nc3ccccc23)c2ccccc21", "Potency": "inconclusive: 5.01 µM [inhibitor, single point]"}, {"smiles": "NC(=O)CC(NC(=O)Cc1ccc(Br)cc1)c1ccc(NCCc2ccccc2F)c([N+](=O)[O-])c1", "note": "(configuration not stated)", "Potency": "inactive"}, {"smiles": "COc1ccc(CCN2C(=O)C3C4CC(C5C(C(N)=O)=NOC45)C3C2=O)cc1OC", "note": "(configuration not stated)", "Potency": "inconclusive: 35.5 µM [inhibitor, single point]"}, {"smiles": "CC[C@@H](c1ccccc1)n1c(=O)n2n(c1=O)[C@H]1[C@H](O)[C@H]3O[C@@H]3/C(=N/OC[C@@H](O)COCc3ccco3)[C@@H]1CC2", "Potency": "inconclusive: 5.01 µM [inhibitor, single point]"}, {"smiles": "CCOC(=O)c1ccc(NC(=O)COc2cc3oc(=O)c(CC(C)O)c(C)c3cc2Cl)cc1", "note": "(configuration not stated)", "Potency": "inconclusive: 44.7 µM [inhibitor, single point]"}, {"smiles": "CSc1ccc(/C=C2\\C(=N)N3N=C(CC(=O)N4CCOCC4)SC3=NC2=O)cc1", "Potency": "inactive"}, {"smiles": "O=[N+]([O-])c1ccc(C(=S)N2CCN(c3ccc(F)cc3)CC2)cc1", "Potency": "inactive"}, {"smiles": "O=C(CCCC(=O)N/N=C\\c1ccccn1)N/N=C\\c1ccccn1", "Potency": "inconclusive: 8.91 µM [inhibitor, single point]"}, {"smiles": "Cc1ccc(NC(=O)CSc2nc(NS(=O)(=O)c3ccc(C)cc3)cc(=O)[nH]2)cc1", "Potency": "inconclusive: 35.5 µM [inhibitor, single point]"}, {"smiles": "Cc1nsc(Nc2ccccc2)c1C#N", "Potency": "inconclusive: 2.82 µM [inhibitor, partial curve, poor fit]"}, {"smiles": "CC1(OC(=O)CCc2ccccc2)C(=O)C=C2C=C(c3ccc(C#N)cc3)N(C3CCCC3)C=C2C1=O", "note": "(configuration not stated)", "Potency": "inconclusive: 0.0708 µM [inhibitor, full curve, poor fit]"}, {"smiles": "C#CCOc1ccc(/C=C2\\SC(=S)N(Cc3cccnc3)C2=O)cc1", "Potency": "inconclusive: 8.91 µM [inhibitor, single point]"}, {"smiles": "C[N+](C)(C)CC(=O)N/N=C/c1c2ccccc2cc2ccccc12", "Potency": "inconclusive: 26.7 µM [inhibitor, partial curve]"}, {"smiles": "O=C(NCC(=O)N1CCN(c2ccccc2O)CC1)c1ccco1", "Potency": "inactive"}, {"smiles": "COc1ccc(CN2C(=O)c3ccccc3C(/C=N/OCc3ccc(Cl)cc3)C2=O)cc1", "note": "(configuration not stated)", "Potency": "inconclusive: 1.78 µM [inhibitor, partial curve]"}, {"smiles": "Cc1nc(-c2coc3c(O)c(O)ccc3c2=O)cs1", "Potency": "inconclusive: 12.6 µM [inhibitor, partial curve]"}, {"smiles": "CCOC(=O)c1[nH]c(C)c(C(=O)C(C)C)c1C", "Potency": "inconclusive: 44.7 µM [inhibitor, single point]"}, {"smiles": "COc1cccc(COCCN2CCN(S(=O)(=O)c3ccc(C)cc3)CCC2=O)c1", "Potency": "inconclusive: 3.16 µM [inhibitor, single point]"}, {"smiles": "CCCC(=O)Nc1ccc(OCC(=O)OC)cc1", "Potency": "inconclusive: 2.51 µM [inhibitor, partial curve]"}, {"smiles": "COC(=O)C(Cc1ccccc1)NC(=O)CCC(=O)NC(C)CCc1ccccc1", "note": "(configuration not stated)", "Potency": "inconclusive: 33.6 µM [inhibitor, single point]"}, {"smiles": "Cc1ccc(C(=O)NC(=S)N2CCN(C)CC2)cc1", "Potency": "inconclusive: 0.891 µM [inhibitor, full curve, poor fit]"}, {"smiles": "CSc1ccccc1NC(=O)COC(=O)/C=C/c1ccco1", "Potency": "inconclusive: 18.9 µM [inhibitor, single point]"}, {"smiles": "Cc1ccccc1NC1=C/C(=N\\S(=O)(=O)c2cccs2)c2ccccc2C1=O", "Potency": "inactive"}, {"smiles": "COc1ccccc1/C=C/C(=O)NCC(=O)N/N=C/c1cccnc1", "Potency": "inconclusive: 3.55 µM [inhibitor, single point]"}, {"smiles": "CC1CCN(C(=O)C2CCC(CNc3c(N4CCCCC4)c(=O)c3=O)CC2)CC1", "note": "(configuration not stated)", "Potency": "inconclusive: 12.6 µM [inhibitor, partial curve, poor fit]"}, {"smiles": "COc1ccc(NC(=S)NC(NC(=O)c2cccc3ccccc23)C(Cl)(Cl)Cl)c([N+](=O)[O-])c1", "note": "(configuration not stated)", "Potency": "inconclusive: 0.0398 µM [inhibitor, full curve, poor fit]"}, {"smiles": "CN(C)c1ccc(/C=C2\\C(=N)N3N=C(CC(=O)N4CCCC4)SC3=NC2=O)cc1Br", "Potency": "inactive"}, {"smiles": "Cc1[nH]nc(-c2ccc(O)cc2O)c1Oc1ccccc1", "Potency": "inconclusive: 0.0631 µM [inhibitor, single point]"}, {"smiles": "O=C(COC(=O)c1ccncc1)NCCCc1ccccc1", "Potency": "inconclusive: 3.16 µM [inhibitor, single point]"}, {"smiles": "C=CCn1c(NCc2ccc3c(c2)OCO3)nc2ccccc21", "Potency": "inconclusive: 17.8 µM [inhibitor, partial curve]"}, {"smiles": "CCOC(=O)c1[nH]c2c(c1C)C(=O)CC(c1ccc(F)cc1)C2", "note": "(configuration not stated)", "Potency": "inconclusive: 31.6 µM [inhibitor, single point]"}, {"smiles": "COc1ccc(Cn2c(-c3ccco3)nc3c(c(=O)c4ccccc4n3C)c2=O)cc1", "Potency": "inactive"}, {"smiles": "Cc1cc(NC(=O)Nc2ccc(N(C)C)cc2)c2cc(F)cc(F)c2n1", "Potency": "inconclusive: 20 µM [inhibitor, partial curve]"}, {"smiles": "Cc1onc(-c2c(Cl)cccc2Cl)c1C(=O)N[C@@H]1C(=O)N2[C@@H]1SC(C)(C)[C@@H]2C(=O)O", "Potency": "inactive"}]}]}
